Drawing on the supplement of paper PMC8426693, this text covers T2 signal reduction and NMR binding call for 12 molecules.

Molecules are shown by their SMILES. The list shows a part of the results. For some assays here: Repeats are few or missing, and single values can be far off.

Common to all, as to details: RNA concentration 10 µM; fragment concentration 200 µM; 293 K
Assay [1] concerns SARS-CoV-2 3_SL3base RNA. As to the kind of experiment: T2 signal reduction relative to ligand without RNA (fraction); higher = stronger binding.
Another assay relates to SARS-CoV-2 5'-UTR RNA. The assay is described as above.
The next assay relates to SARS-CoV-2 3'-UTR RNA. As to the kind of experiment: NMR binding call after quantification (hit when 2 of 3 NMR criteria are met) (binary (1 = binding, 0 = not binding)); higher = binding.
The test system of the next assay is SARS-CoV-2 3_SL2 RNA. The description is as above.
In assay [2] the test system is SARS-CoV-2 3_SL3base RNA. Described as above.
The subject of assay [3] is SARS-CoV-2 3_s2m RNA. Described as above.
The subject of another assay is SARS-CoV-2 5_SL5 RNA. In words: T2 signal reduction relative to ligand without RNA (fraction); higher = stronger binding.
A further assay concerns SARS-CoV-2 3_SL1 RNA. As to the kind of experiment: NMR binding call after quantification (hit when 2 of 3 NMR criteria are met) (binary (1 = binding, 0 = not binding)); higher = binding.
The test system of a further assay is SARS-CoV-2 3_SL1+2 RNA. The description is as above.
Assay [4] deals with SARS-CoV-2 3_s2m RNA. In words: T2 signal reduction relative to ligand without RNA (fraction); higher = stronger binding.
For the next assay, the system named is SARS-CoV-2 5_SL4 RNA. Described as above.
The next assay relates to SARS-CoV-2 5_SL7 RNA. Described as above.
The next assay deals with SARS-CoV-2 5_SL5stem RNA. The description is as above.
A further assay concerns SARS-CoV-2 5_SL5b+c RNA. The description is as above.
The subject of a further assay is SARS-CoV-2 5_SL1 RNA. The description is as above.
Another assay deals with SARS-CoV-2 5_SL1234 RNA. The assay is described as above.
Another assay deals with SARS-CoV-2 5_SL6 RNA. The assay is described as above.
The subject of another assay is SARS-CoV-2 5_SL8 RNA. The assay is described as above.
In assay [5] the test system is SARS-CoV-2 attenuator hairpin (att HP) RNA. The description is as above.
Assay [6] relates to SARS-CoV-2 frameshift pseudoknot (PK) RNA. The assay is described as above.

With `O=C(Nc1ccc(O)cc1)c1ccc(Cl)cc1`, the T2 signal reduction in the assay with SARS-CoV-2 3_SL3base RNA [1] is 0.49; with SARS-CoV-2 5'-UTR RNA it was 0.38. The NMR binding call with SARS-CoV-2 3'-UTR RNA was found to be 1; in the assay with SARS-CoV-2 3_SL2 RNA, 0; in the assay with SARS-CoV-2 3_SL3base RNA [2] it was 1; in the assay with SARS-CoV-2 3_s2m RNA [3] it was 0.
Regarding `COc1ccc2sc(N)nc2c1`, the T2 signal reduction in the assay with SARS-CoV-2 3_SL3base RNA [1] is 0.58; in the assay with SARS-CoV-2 5'-UTR RNA, 0.81; in the assay with SARS-CoV-2 5_SL5 RNA, 0.62. Besides, the NMR binding call in the assay on SARS-CoV-2 3'-UTR RNA is 1; in the assay on SARS-CoV-2 3_SL1 RNA, 0; in the assay on SARS-CoV-2 3_SL1+2 RNA, 0; in the assay on SARS-CoV-2 3_SL2 RNA it was 0; in the assay with SARS-CoV-2 3_SL3base RNA [2], 1; with SARS-CoV-2 3_s2m RNA [3] it was 0.
As to `NC(=O)c1cc(N2CCCC2)ccn1`, the T2 signal reduction in the assay with SARS-CoV-2 3_SL3base RNA [1] turned out to be 0.68; in the assay with SARS-CoV-2 3_s2m RNA [4], 0.46; in the assay with SARS-CoV-2 5'-UTR RNA it was 0.93; with SARS-CoV-2 5_SL4 RNA it was 0.49; with SARS-CoV-2 5_SL5 RNA, 0.49; in the assay on SARS-CoV-2 5_SL7 RNA, 0.43. The NMR binding call was determined as 1 in the assay on SARS-CoV-2 3'-UTR RNA; 0 in the assay with SARS-CoV-2 3_SL1 RNA; 1 in the assay with SARS-CoV-2 3_SL1+2 RNA; 0 with SARS-CoV-2 3_SL2 RNA; 1 with SARS-CoV-2 3_SL3base RNA [2]; 1 in the assay on SARS-CoV-2 3_s2m RNA [3].
Take `CCCc1nnc(NC(=O)c2ccccn2)s1`: the T2 signal reduction with SARS-CoV-2 5'-UTR RNA turned out to be 0.86. For the same molecule, the NMR binding call with SARS-CoV-2 3'-UTR RNA, with SARS-CoV-2 3_SL1 RNA, in the assay on SARS-CoV-2 3_SL1+2 RNA, with SARS-CoV-2 3_SL2 RNA, with SARS-CoV-2 3_SL3base RNA [2] and in the assay on SARS-CoV-2 3_s2m RNA [3] was 0 in each case.
Molecule `Cc1cc(C(=O)Nc2ccc3[nH]ccc3c2)no1` came in with a T2 signal reduction in the assay on SARS-CoV-2 3_SL3base RNA [1] of 0.31. Also, the NMR binding call in the assay on SARS-CoV-2 3'-UTR RNA came out at 1; in the assay with SARS-CoV-2 3_SL1 RNA, 0; in the assay on SARS-CoV-2 3_SL1+2 RNA, 0; in the assay with SARS-CoV-2 3_SL2 RNA, 0; in the assay on SARS-CoV-2 3_SL3base RNA [2], 1; in the assay with SARS-CoV-2 3_s2m RNA [3], 0.
On to `Oc1ccc(CN2CCCC2)c2cccnc12`, for which the T2 signal reduction amounted to 0.64 in the assay with SARS-CoV-2 3_SL3base RNA [1] and 1.04 with SARS-CoV-2 5'-UTR RNA. Moreover, the NMR binding call in the assay on SARS-CoV-2 3'-UTR RNA was 1; in the assay with SARS-CoV-2 3_SL1 RNA, 0; in the assay on SARS-CoV-2 3_SL1+2 RNA, 0; in the assay with SARS-CoV-2 3_SL2 RNA, 0; in the assay with SARS-CoV-2 3_SL3base RNA [2], 1; with SARS-CoV-2 3_s2m RNA [3] it was 0.
With `O=C(NO)c1ccc2ccccc2n1`, the T2 signal reduction was found to be 0.55 with SARS-CoV-2 5'-UTR RNA and 0.5 in the assay with SARS-CoV-2 5_SL5stem RNA. Also, the NMR binding call with SARS-CoV-2 3_SL1 RNA, in the assay on SARS-CoV-2 3_SL1+2 RNA, with SARS-CoV-2 3_SL2 RNA, in the assay with SARS-CoV-2 3_SL3base RNA [2] and with SARS-CoV-2 3_s2m RNA [3] was 0 each time.
As for `Cc1ccc(-c2noc(CNC(C)C)n2)cc1`, the values for the T2 signal reduction in the assay with SARS-CoV-2 3_SL3base RNA [1], with SARS-CoV-2 5_SL5 RNA and in the assay with SARS-CoV-2 5_SL7 RNA were 0.52, 0.82 and 0.43, respectively. Besides, the NMR binding call in the assay with SARS-CoV-2 3'-UTR RNA worked out at 1; with SARS-CoV-2 3_SL1 RNA, 0; in the assay on SARS-CoV-2 3_SL1+2 RNA, 0; in the assay with SARS-CoV-2 3_SL2 RNA it was 0; with SARS-CoV-2 3_SL3base RNA [2] it was 1; in the assay on SARS-CoV-2 3_s2m RNA [3], 0.
The molecule `c1ccc(CCNc2nc3ccccc3[nH]2)cc1` displayed a T2 signal reduction in the assay with SARS-CoV-2 5'-UTR RNA of 0.73. Besides, the NMR binding call came to 1 in the assay on SARS-CoV-2 3'-UTR RNA; 0 with SARS-CoV-2 3_SL1 RNA; 0 in the assay on SARS-CoV-2 3_SL1+2 RNA; 0 in the assay on SARS-CoV-2 3_SL2 RNA; 0 in the assay on SARS-CoV-2 3_SL3base RNA [2]; 0 in the assay on SARS-CoV-2 3_s2m RNA [3].
In the case of `CNCc1cnn(-c2ccccc2)c1`, the T2 signal reduction in the assay on SARS-CoV-2 5'-UTR RNA was determined as 0.51; in the assay on SARS-CoV-2 5_SL5b+c RNA it was 0.42. Moreover, the NMR binding call with SARS-CoV-2 3'-UTR RNA, in the assay with SARS-CoV-2 3_SL1 RNA, with SARS-CoV-2 3_SL1+2 RNA, in the assay on SARS-CoV-2 3_SL2 RNA, in the assay on SARS-CoV-2 3_SL3base RNA [2] and with SARS-CoV-2 3_s2m RNA [3] was 0 each time.
With `O=C(Nc1ccccn1)c1cnccn1`, the values for the T2 signal reduction with SARS-CoV-2 5'-UTR RNA and in the assay with SARS-CoV-2 5_SL5 RNA were 0.51 and 0.38, respectively. Moreover, the NMR binding call in the assay with SARS-CoV-2 3_SL1 RNA, in the assay on SARS-CoV-2 3_SL1+2 RNA, in the assay on SARS-CoV-2 3_SL2 RNA, in the assay on SARS-CoV-2 3_SL3base RNA [2] and in the assay with SARS-CoV-2 3_s2m RNA [3] was 0 in each case.
As for `OCc1cn(-c2ccc(Cl)c(Cl)c2)nn1`, the T2 signal reduction in the assay on SARS-CoV-2 3_SL3base RNA [1] came out at 0.48; in the assay on SARS-CoV-2 3_s2m RNA [4], 0.45; in the assay on SARS-CoV-2 5'-UTR RNA, 0.92; in the assay with SARS-CoV-2 5_SL1 RNA it was 0.14; with SARS-CoV-2 5_SL1234 RNA, 0.35; in the assay on SARS-CoV-2 5_SL4 RNA, 0.51. For the same molecule, the T2 signal reduction worked out at 0.74 with SARS-CoV-2 5_SL5 RNA; 0.43 with SARS-CoV-2 5_SL5b+c RNA; 0.59 in the assay with SARS-CoV-2 5_SL5stem RNA; 0.17 with SARS-CoV-2 5_SL6 RNA; 0.48 with SARS-CoV-2 5_SL7 RNA; 0.14 with SARS-CoV-2 5_SL8 RNA. Further, the values for the T2 signal reduction in assay [5] and in assay [6] were 0.08 and 0.7, respectively. For the same molecule, the NMR binding call in the assay on SARS-CoV-2 3'-UTR RNA, in the assay with SARS-CoV-2 3_SL1 RNA, in the assay with SARS-CoV-2 3_SL1+2 RNA, in the assay on SARS-CoV-2 3_SL2 RNA, in the assay with SARS-CoV-2 3_SL3base RNA [2] and in the assay with SARS-CoV-2 3_s2m RNA [3] was 1 in each case.
